Measurements reported in PubChem BioAssay AID1053208 (Peter MacCallum Cancer Centre, 2014)
The whole screen tested about 17,000 reagents; below is an unselected part. In the full data, 788 (4.7%) were called active. 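Calls rest on z-score classes alone; an extra cut-off of viability at most 70% of control was not applied to them.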 Further read-outs or replicates are left out here.

Aim: 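Find knock-downs that sensitise mouse osteosarcoma cells to doxorubicin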 (primary screen)
System: mouse osteosarcoma cells, early-passage culture from an engineered mouse model of fibroblastic bone tumour
Reagents: siRNA pool against mouse genes, 40 nM
Time to read-out: about 120 h (48 h before drug, then 72 h with drug)
Conditions: doxorubicin 100 nM for 72 h, roughly 30-40% inhibitory dose
Measurement: 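Viability read as ATP luminescence after 72 h of 100 nM doxorubicin or none, duplicate wells averaged, scaled to non-targeting siRNA, then expressed as robust z-scores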
Reading the numbers: viability z-score with doxorubicin: higher = more viable cells under doxorubicin; viability z-score without drug: higher = more viable cells with knock-down alone
Hit rule: 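a pool counts as active when its viability z-score with doxorubicin is -2 or below and its z-score without drug lies between -2 and 2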

Knock-down of Acot13 resulted in: combined z-score class no change with or without drug; viability z-score with doxorubicin 0.11; viability z-score without drug 0.67; inactive.
After knock-down of Prrc2a, the screen gave combined z-score class no change with or without drug; viability z-score with doxorubicin 1.01; viability z-score without drug -0.17; inactive.
Csgalnact1 scored combined z-score class no change with or without drug; viability z-score with doxorubicin -0.9; viability z-score without drug 0.17; inactive.
After knock-down of Tmem229b, the screen gave combined z-score class no change with or without drug; viability z-score with doxorubicin -0.79; viability z-score without drug -0.17; inactive.
Against Slc16a11 the deposit lists combined z-score class no change with or without drug; viability z-score with doxorubicin -1.12; viability z-score without drug -0.84; inactive.
Ctnnal1 gave combined z-score class no change with or without drug; viability z-score with doxorubicin -0.22; viability z-score without drug -0.51; inactive.

No new results follow: an excerpt of the list.
Tmem229b — combined z-score class: no change with or without drug; viability z-score with doxorubicin: -0.79; viability z-score without drug: -0.17; Outcome: inactive
Slc16a11 — combined z-score class: no change with or without drug; viability z-score with doxorubicin: -1.12; viability z-score without drug: -0.84; Outcome: inactive

The results go on:
For Zfp771, the values are combined z-score class no change with or without drug; viability z-score with doxorubicin 1.01; viability z-score without drug 1.52; inactive.
Against Nmnat2 the deposit lists combined z-score class no change with or without drug; viability z-score with doxorubicin -0.34; viability z-score without drug 0; inactive.
With knock-down of Fam20a, the screen gave combined z-score class no change with or without drug; viability z-score with doxorubicin -0.67; viability z-score without drug 0; inactive.
Against Nodal, the values are combined z-score class no change with or without drug; viability z-score with doxorubicin -0.45; viability z-score without drug -1.85; inactive.
Ctsh scored combined z-score class no change with or without drug; viability z-score with doxorubicin -0.56; viability z-score without drug -0.84; inactive.
Knock-down of Nop2 gave: combined z-score class no change with or without drug; viability z-score with doxorubicin 1.12; viability z-score without drug -0.67; inactive.
